In patent US5821230A (Ferring BV, priority 1997, dated 1998):

Experiment: general procedure: Boc solid-phase peptide synthesis; MBHA resin (Bachem); DIC/HOBt
Settings: whole synthesis, scale of the general procedure about 9.3 grams (0.54 mmol) of MBHA resin

Substance	final purity (method not given) (capillary zone electrophoresis (CZE))	final purity (method not given) (CZE)
PEPTIDE1{[ac].[D-2Nal].[D-4Cpa].[D-Dpr(Cbm)].S.[4Aph(Ac)].[D-4Aph(Ac)].L.[ILys].P.[dA].[am]}$$$$V2.0	greater than 98%	
PEPTIDE1{[ac].[D-2Nal].[D-4Cpa].[D-Dpr(MeCbm)].S.[4Aph(Ac)].[D-4Aph(Ac)].L.[ILys].P.[dA].[am]}$$$$V2.0		about 100%

Strings that start with PEPTIDE1 are HELM notation: dots part the residues, brackets hold end groups and non-standard residues.
